Where “and” joins values, the source holds several entries; their conditions need not be identical. Equal values may be shown once. Where a name gives a salt, the structure may show the parent alone. This is one part of the list. Single values are uncertain here, since repeats match poorly.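 In a drug-repurposing library screen, luminescence reads luciferase driven by eight TEAD-binding elements, stably integrated into human kidney-derived cells. Compounds scoring over five robust Z scores above the plate mean are called hits.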
System: HEK293A TEAD-LUC reporter
Experiment: TEAD-luciferase reporter activity (YAP activation), robust Z score vs plate; higher = stronger YAP/TEAD activation
Details: 24 h

SMILES	TEAD-luciferase reporter activity (compound concentration: 200 nM)	TEAD-luciferase reporter activity (compound concentration: 2 uM)	TEAD-luciferase reporter activity (compound concentration: 10 uM)
N[C@@H](Cc1c[nH]c2ccc(O)cc12)C(=O)O [L-5-hydroxytryptophan]	inactive: -0.858	inactive: -0.202	inactive: -1.34
NC(=O)c1cccc(-c2cccc(OC(=O)NC3CCCCC3)c2)c1	inactive: -0.26	inactive: 2.77 and inactive: -0.24	inactive: 2.66
Cc1ncccc1Oc1cc(Sc2ccccn2)cnc1Nc1nc([C@H](O)CO)ns1	inactive: -0.797	inactive: -1.06	inactive: -0.995
C[C@H](Nc1ncnc2[nH]cnc12)c1cc2cccc(Cl)c2c(=O)n1-c1ccccc1	inactive: 0.416	inactive: -1.6	inactive: 0.688
C/C(=C\c1ccc(C(=O)O)s1)c1cc2c(cc1C)C(C)(C)CCC2(C)C	inactive: -0.903	inactive: 1.36	inactive: 2.71
CO/N=C(/C(=O)NC1C(=O)N2C(C(=O)O)=C(COC(N)=O)CSC12)c1ccco1 (stereo not given) [cefuroxime]	inactive: -0.508	inactive: -0.378	active: 6.69
Nc1cc(Cl)c(Sc2ccccc2Cl)c(Cl)c1	inactive: 1.72	inactive: -1.5	inactive: -1.8
CC1(NC2=NS(=O)(=O)c3sc(Cl)cc3N2)CC1	inactive: -2.27	inactive: -0.938	inactive: -0.0693
CCOC(=O)CSCCC1NC(C(=O)O)CS1 (stereo not given) [letosteine]	inactive: 0.578	inactive: -0.558	inactive: 0.556
N=C(N)c1ccc(OCCCOc2ccc(C(=N)N)cc2)cc1	inactive: 0.663	inactive: 1.46	inactive: -0.314
COc1cc2c(cc1OC)[C@@H](Cc1ccc(O)c(Oc3ccc(C[C@H]4c5cc(OC)c(OC)cc5CCN4C)cc3)c1)N(C)CC2 [Dauricine]	inactive: -0.972	inactive: -0.281	inactive: 4.14
Cc1ccc(O)c(C(CCN(C(C)C)C(C)C)c2ccccc2)c1 (stereo not given) [tolterodine]	inactive: -0.256	inactive: 1.46	active: 8.3
O=C(Nc1ccc(F)cc1)N1CCN(c2cccc(C(F)(F)F)c2)CC1	inactive: -0.975	inactive: -2.57	inactive: -2.49
CC(C)(C)c1ccc(S(=O)(=O)Nc2ccc(Cl)cc2C(=O)c2ccccc2)cc1	inactive: -0.0327	inactive: -0.78	inactive: -2.12
CC(Nc1cc(=O)n(C)c(=O)[nH]1)c1ccccc1 (stereo not given)	inactive: -0.62	inactive: -1.25	inactive: -0.753
O=C(CN1C(=O)NC2(CCOc3ccccc32)C1=O)NCc1cccc(Cl)c1 (stereo not given)	inactive: -0.93	inactive: -1.4	inactive: 2.56
COc1ccccc1S(=O)(=O)Nc1cc(C(=O)NC(C)(C)C)ccc1Oc1cc(F)c(CC(=O)O)cc1Cl	inactive: 1.42	inactive: -1.04	inactive: 0.605
Cc1nc(-c2cccnc2)sc1C(=O)Nc1ccccc1-c1cn2c(CN3CCOCC3)csc2n1 [sirtuin modulator]	inactive: 0.179	–	inactive: -0.188
Cc1nc(-c2cccnc2)sc1C(=O)Nc1ccccc1-c1cn2c(CN3CCOCC3)csc2n1	–	inactive: -0.759	–
O=c1ccc2ncc(=O)n3c2n1CC3CN1CCC(NCc2cc3c(cn2)OCCC3)CC1 (stereo not given) [Gepotidacin]	inactive: 0.873	–	inactive: -0.0979
CC(=O)Nc1ccc(OCC(O)CNC(C)C)c(C(C)=O)c1 (stereo not given) [Diacetolol hydrochloride]	inactive: 3.52	inactive: -0.783	inactive: 1.59
C=C(c1ccc(C(=O)O)cc1)c1cc2c(cc1C)C(C)(C)CCC2(C)C [Bexarotene]	inactive: 4.83	–	inactive: 1.16
C=C(c1ccc(C(=O)O)cc1)c1cc2c(cc1C)C(C)(C)CCC2(C)C [bexarotene, gel]	–	inactive: -1.45	–
CC(O)(c1ccncc1)c1nc(-c2ccc(F)cc2)no1 (stereo not given)	–	inactive: -0.341	–
CCc1cc(Nc2nc(-c3ccc(-n4cnc(C)c4)c(F)c3)cs2)c(C)cc1C	inactive: 1.1	inactive: 1.77	inactive: -0.864
CN[C@@H]1[C@@H](O)[C@@H](O[C@H]2[C@H](NC(=O)[C@@H](O)CN)C[C@H](N)C(O[C@H]3O[C@H](CN)[C@@H](O)[C@H](O)[C@H]3O)[C@@H]2O)OC[C@]1(C)O (stereo not given in full) [Isepamicin sulfate]	inactive: -0.484	inactive: -1.06	inactive: -0.971
CCN(CC)CCNc1ccc(CNC=O)c2sc3ccc(OC)cc3c(=O)c12	inactive: -1.12	inactive: -2.62	inactive: 0.19
Nc1ncnc(Nc2ccccc2)n1	inactive: -0.747	inactive: 0.905	inactive: -1.26

Full records, quoted from the list. Order of values: TEAD-luciferase reporter activity (compound concentration: 200 nM)	TEAD-luciferase reporter activity (compound concentration: 2 uM)	TEAD-luciferase reporter activity (compound concentration: 10 uM)
COc1ccccc1S(=O)(=O)Nc1cc(C(=O)NC(C)(C)C)ccc1Oc1cc(F)c(CC(=O)O)cc1Cl is listed as inactive: 1.42	inactive: -1.04	inactive: 0.605
N[C@@H](Cc1c[nH]c2ccc(O)cc12)C(=O)O [L-5-hydroxytryptophan] is listed as inactive: -0.858	inactive: -0.202	inactive: -1.34

Source: the supplement of paper PMC10735217
